PubChem BioAssay AID602196 – INSERM, 2012

Test: 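Genes whose knock-down alters cisplatin killing of lung cancer cells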
Cell system: human A549 lung cancer cells
Reagent: siRNA pair against human genes
Timing: 48 h transfection before cisplatin; time from cisplatin to read-out not stated
Challenge: cisplatin at a dose killing half of control-siRNA cells; exact dose and duration not given
Read-out: 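Cisplatin cell death as a shift from the 50% death seen with control siRNA; siRNAs toxic or growth-blocking alone scored 0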
Scale: two-siRNA summed score (-2 to +2): higher = both siRNAs protect from cisplatin killing; -2 means both sensitise; mean protection from cisplatin (shift in death): higher = protection from cisplatin killing
Call rule: 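siRNAs harmful alone (LDH or WST-1) get 0; others get +1 for less and -1 for more cisplatin killing; genes are active when the two siRNAs give the same sign, summing to ±2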
Meaning of the calls: active = both siRNAs shift cisplatin killing the same way; inactive = no consistent shift, or siRNA harmful alone
Shown is an unselected part of about 23,000 reagents tested. Over the whole deposit, 455 (2%) are marked active. 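Active includes both protection and sensitisation; some change values fall well beyond the stated -50 to +50 range.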 A number with no mark means an inactive call. Not all columns of the deposit are shown. Not stated in the record: the amount of reagent.

The first 6 entries as a preview:
Target gene	two-siRNA summed score (-2 to +2)	mean protection from cisplatin (shift in death) (%)
PYROXD2	0	4.4
LOC388915	0	6.3
FERMT1	0	4.6
ENKD1	0	13.7
SLC17A3	1	8.5
TRA2B	0	-6.1

The list itself, from the first entry:
Target gene	two-siRNA summed score (-2 to +2)	mean protection from cisplatin (shift in death) (%)
PYROXD2	0	4.4
LOC388915	0	6.3
FERMT1	0	4.6
ENKD1	0	13.7
SLC17A3	1	8.5
TRA2B	0	-6.1
REP15	0	3
GDF9	-1	-7
ZNF678	1	6.7
HRH2	1	13.9
PER2	-1	-13.1
SIGLEC12	1	33.8
ARMC9	-1	-15.6
LOC440171	1	8.2
CBX4	0	12.8
LOC401068 (retired record)	0	17.1
NOL8	1	7.6
MMGT1	0	-4.2
CBLL1	0	16.4
GGT7	2 (active)	22.4
LINC01600	0	4
GUCD1	-1	2.7
TCF19	0	-9.2
BTN3A2	-1	-29.9
DUS3L	0	13.8
ANGPTL3	-2 (active)	-27.3
NPVF	-1	-16.9
USP13	0	1.7
NUMB	0	10.9
TACO1	0	0.2
MAGEE1	0	8.3
LOC342991	0	0.9
CASKIN1	0	5.7
DLG3	-1	-0.7
RBMXL3	0	-2.6
ZNF582	0	-0.2
LINC02139	0	7.7
NCKIPSD	-1	-6.8
NDUFB7	0	17.1
ROPN1	0	5
LOC441799	0	10.2
SYNGR2	0	-5.6
LOC284274	0	5.5
KRTAP5-1	0	6.4
LOC199899	0	8.1
FAM117A	0	0.6
UBN1	0	-7.4
OR6C4	0	12.3
LOC440608	0	1.1
FBXO43	1	5.8
PUS7L	0	1.9
LY6D	0	-2.1
CRYL1	-1	-2.2
SNRPB	0	15.5
MFNG	0	-3.4
LOC129293	0	6.1
LOC390107	0	29.9
